Source: EP0047459A2, “Fluorescent reagent and immunofluorescent determination method” (INTERNATIONAL DIAGNOSTIC TECHNOLOGY, INC., priority 1980, dated 1982)

Tested on: Albumin
Experiment: Fluorescence quenching by albumin
Conditions: quenching effect of albumin on the fluorescence (ja/nein)

Row | SMILES | Fluoreszenzlöschung durch Albumin
1 | Nc1ccc(-c2c3ccc(=O)cc-3oc3cc(O)ccc23)c(C(=O)O)c1 [Aminofluorescein, 5-Aminofluorescein] | ja
2 | O=C(O)c1cc(N=C=S)ccc1-c1c2ccc(=O)cc-2oc2cc(O)ccc12 [Fluorescein-isothiocyanat, Fluoresceinisothiocyanat] | ja
